Source: patent US20100222217A1, “Fungicidal N-[2-(Haloalkoxy)Phenyl]Heteroarylcarboxamides” (priority 2005, published 2010)
Some results were stated once for a whole list of compounds, not compound by compound.

Key:
Assay type in all cases: in vivo
[1] = test system: Puccinia recondita; assay: Curative activity against brown rust of wheat caused by Puccinia recondita; conditions: 250 ppm, wheat seedlings, curative spray one day after inoculation, assessed after 7 days; untreated plants 90% infected
[2] = test system: Botrytis cinerea; assay: Activity against gray mold on bell pepper leaves caused by Botrytis cinerea, protective application; conditions: 250 ppm, bell pepper seedlings, protective spray, assessed after 5 days; untreated plants 75% infected
[3] = test system: Erysiphe [syn. Blumeria] graminis forma specialis. tritici; assay: Activity against mildew of wheat caused by Erysiphe [syn. Blumeria] graminis forma specialis. tritici; conditions: wheat seedlings, protective spray, assessed after 7 days
Protocol: The active compounds were separately or jointly prepared as a stock solution comprising 25 mg of active compound which was made up to 10 ml using a mixture of acetone and/or dimethylsulfoxide and the emulsifier Uniperol® EL (wetting agent having emulsifying and dispersing action based on ethoxylated alkylphenols) in a volume ratio of solvent/emulsifier of 99 to 1. The mixture was then made up with water to 100 ml. This stock solution was diluted with the solvent/emulsifier/water mixture described to the desired concentration of active compounds. Leaves of potted wheat seedlings were sprayed to runoff point with an aqueous suspension having the active compound concentration stated below. The suspension was prepared as described above. 24 hours after the spray coating had dried on, the plants were dusted with spores of mildew of wheat (Erysiphe [syn. Blumeria] graminis forma specialis. tritici). The test plants were then placed in a greenhouse at temperatures between 20 and 24° C. and at 60 to 90% relative atmospheric humidity. After 7 days, the extent of the mildew development was determined visually in % infection of the entire leaf area.

[4] = test system: Alternaria solani; assay: Activity against early blight on tomatoes caused by Alternaria solani; conditions: 250 ppm, tomato plants, protective spray, assessed after 5 days; untreated plants 90% infected
Protocol: The active compounds were separately or jointly prepared as a stock solution comprising 25 mg of active compound which was made up to 10 ml using a mixture of acetone and/or dimethylsulfoxide and the emulsifier Uniperol® EL (wetting agent having emulsifying and dispersing action based on ethoxylated alkylphenols) in a volume ratio of solvent/emulsifier of 99 to 1. The mixture was then made up with water to 100 ml. This stock solution was diluted with the solvent/emulsifier/water mixture described to the desired concentration of active compounds.
Leaves of potted tomato plants of the cultivar “Goldene Königin” were sprayed to runoff point with an aqueous suspension having the concentration of active compounds stated below. The next day, the leaves were infected with an aqueous spore suspension of Alternaria solani in a 2% biomalt solution having a density of 0.17×10^6 spores/ml. The plants were then placed in a water vapor-saturated chamber at temperatures between 20 and 22° C. After 5 days, the disease on the untreated, but infected control plants had developed to such an extent that the infection could be determined visually in %.

[5] = 63 ppm, untreated plants 90% infected
[6] = 250 ppm, untreated plants 80% infected

| Structure (SMILES) | infection [1] | infection [2] | infection [3, 5] | infection [3, 6] | infection [4] |
| --- | --- | --- | --- | --- | --- |
| Cn1cc(C(=O)Nc2ccccc2OC(F)(F)C(F)C(F)(F)F)c(C(F)(F)F)n1 (stereo not drawn) [Compound I-1, N-[2-(1,1,2,3,3,3-Hexafluoropropoxy)phenyl]-1-methyl-3-trifluoromethyl-1H-pyrazole-4-carboxamide] | ≤ 15% | not more than 20% | not more than 40% | not more than 20% | not more than 30% |
| Cn1cc(C(=O)Nc2ccccc2OC(F)(F)C(F)C(F)(F)F)c(C(F)F)n1 (stereo not drawn) [Compound I-2, N-[2-(1,1,2,3,3,3-hexafluoropropoxy)phenyl]-3-difluoromethyl-1-methyl-1H-pyrazole-4-carboxamide] | ≤ 15% | not more than 20% | not more than 40% | not more than 20% | not more than 30% |
| Cn1cc(C(=O)Nc2ccccc2OC(F)(F)C(F)Cl)c(C(F)(F)F)n1 (stereo not drawn) [Compound I-3, N-[2-(2-Chloro-1,1,2-trifluoroethoxy)phenyl]-1-methyl-3-trifluoromethyl-1H-pyrazole-4-carboxamide] | ≤ 15% | not more than 20% | not more than 40% | not more than 20% | not more than 30% |
| Cn1cc(C(=O)Nc2ccccc2OC(F)(F)C(F)Cl)c(C(F)F)n1 (stereo not drawn) [Compound I-4, N-[2-(2-chloro-1,1,2-trifluoroethoxy)phenyl]-3-difluoromethyl-1-methyl-1H-pyrazole-4-carboxamide] | ≤ 15% | not more than 20% | not more than 40% | not more than 20% | not more than 30% |
| Cn1cc(C(=O)Nc2ccccc2OC(F)(F)C(F)F)c(C(F)F)n1 [Compound I-5, N-[2-(1,1,2,2-tetrafluoroethoxy)phenyl]-3-difluoromethyl-1-methyl-1H-pyrazole-4-carboxamide] | ≤ 15% | not more than 20% | not more than 40% | not more than 20% | not more than 30% |
| Cc1nc(C(F)(F)F)c(C(=O)Nc2ccccc2OC(F)(F)C(F)F)s1 [Compound I-6, N-[2-(1,1,2,2-tetrafluoroethoxy)phenyl]-2-methyl-4-trifluoromethylthiazol-5-yl-carboxamide] | ≤ 15% | not more than 20% |  |  |  |
| Cc1nc(C)c(C(=O)Nc2ccccc2OC(F)(F)C(F)F)s1 [Compound I-7, N-[2-(1,1,2,2-tetrafluoroethoxy)phenyl]-2,4-dimethylthiazol-5-ylcarboxamide] | ≤ 15% |  |  |  |  |
| Cc1nc(C(F)(F)F)c(C(=O)Nc2ccccc2OC(F)(F)C(F)C(F)(F)F)s1 (stereo not drawn) [Compound I-8, N-[2-(1,1,2,3,3,3-hexafluoropropoxy)phenyl]-2-methyl-4-trifluoromethylthiazole-5-carboxamide] | ≤ 15% | not more than 20% |  |  |  |
| Cc1nc(C(F)(F)F)c(C(=O)Nc2ccccc2OC(F)(F)C(F)Cl)s1 (stereo not drawn) [Compound I-9, N-[2-(2-chloro-1,1,2-trifluoroethoxy)phenyl]-2-methyl-4-trifluoromethylthiazole-5-carboxamide] | ≤ 15% | not more than 20% |  |  |  |
| Cc1nc(C(F)F)c(C(=O)Nc2ccccc2OC(F)(F)C(F)C(F)(F)F)s1 (stereo not drawn) [Compound I-11, N-[2-(1,1,2,3,3,3-hexafluoropropoxy)phenyl]-4-difluoromethyl-2-methylthiazole-5-carboxamide] | ≤ 15% | not more than 20% |  |  |  |
| O=C(Nc1ccccc1OC(F)(F)C(F)F)c1cccnc1Cl [Compound I-12, N-[2-(1,1,2,2-tetrafluoroethoxy)phenyl]-2-chloronicotinamide] | ≤ 15% | not more than 20% |  |  |  |
| O=C(Nc1ccccc1OC(F)(F)C(F)C(F)(F)F)c1cccnc1Cl (stereo not drawn) [Compound I-13, N-[2-(1,1,2,3,3,3-hexafluoropropoxy)phenyl]-2-chloronicotinamide] | ≤ 15% | not more than 20% |  |  |  |
| O=C(Nc1ccccc1OC(F)(F)C(F)Cl)c1cccnc1Cl (stereo not drawn) [Compound I-14, N-[2-(2-chloro-1,1,2-trifluoroethoxy)phenyl]-2-chloronicotinamide] |  | not more than 20% |  |  |  |
